PubChem BioAssay AID743121, NCATS | 2013
Assay: 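Genes whose silencing strengthens cell killing by camptothecin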 (primary screen). System: MDA-MB-231 cells, a human breast cancer line. Knock-down reagent: single siRNA against human genes, 20 nM siRNA (0.8 pmol per well). Timing: 120 h (drug added 48 h after transfection, read 72 h later). Treatment: camptothecin 20 nM (about EC30) for 72 h; vehicle 0.1% DMSO in parallel plates. Detection: 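Cell viability by ATP luminescence (CellTiter-Glo) as % of non-targeting siRNA wells, and the log2 ratio of viability without drug over viability with camptothecin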. Reading the numbers: log2 vehicle/camptothecin viability: higher = stronger sensitisation to camptothecin; viability with camptothecin: higher = more viable cells. Hit rule: 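Each gene scored by redundant siRNA activity (RSA) over its individual siRNA ratios; a gene is called active at p < 0.001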.
In all, the deposit lists about 26,000 reagents; this is an unselected part. 167 of all reagents (0.63%) were called active. 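Calls are per gene from RSA p-values that are not deposited; an individual active-marked siRNA can sensitise only weakly.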 The numbers tell different reagents against one gene apart. Not all columns of the deposit are shown.

After knock-down of TRIM49B (tripartite motif containing 49B) #1, the screen gave log2 vehicle/camptothecin viability -0.388; viability with camptothecin (% of control) = 75; inactive.
Knock-down of TRIM49B (tripartite motif containing 49B) #2 resulted in: log2 vehicle/camptothecin viability -0.0778; viability with camptothecin (% of control) = 115; inactive.
Depletion of TRIM49B (tripartite motif containing 49B) #3 resulted in: log2 vehicle/camptothecin viability -0.138; viability with camptothecin (% of control) = 58.6; inactive.
For TRIM49B (tripartite motif containing 49B) #4 the deposit lists log2 vehicle/camptothecin viability -0.49; viability with camptothecin (% of control) = 61.2; inactive.
With knock-down of TREML4 (triggering receptor expressed on myeloid cells like 4) #1 the results were log2 vehicle/camptothecin viability -0.501; viability with camptothecin (% of control) = 68.1; inactive.
TREML4 (triggering receptor expressed on myeloid cells like 4) #2 scored log2 vehicle/camptothecin viability -0.705; viability with camptothecin (% of control) = 59.8; inactive.
TREML4 (triggering receptor expressed on myeloid cells like 4) #3 gave log2 vehicle/camptothecin viability -0.127; viability with camptothecin (% of control) = 107; inactive.
Knock-down of TREML4 (triggering receptor expressed on myeloid cells like 4) #4 gave: log2 vehicle/camptothecin viability -0.642; viability with camptothecin (% of control) = 78; inactive.
Depletion of ABI3BP (ABI family member 3 binding protein) #1 gave: log2 vehicle/camptothecin viability -0.0014; viability with camptothecin (% of control) = 72.8; inactive.
For ABI3BP (ABI family member 3 binding protein) #2, the entry reads log2 vehicle/camptothecin viability 0.311; viability with camptothecin (% of control) = 12.7; inactive.
ABI3BP (ABI family member 3 binding protein) #3 scored log2 vehicle/camptothecin viability -0.703; viability with camptothecin (% of control) = 93.6; inactive.
Against ABI3BP (ABI family member 3 binding protein) #4, the values are log2 vehicle/camptothecin viability -0.0617; viability with camptothecin (% of control) = 104; inactive.
With knock-down of MC1R (melanocortin 1 receptor) #1, the record shows log2 vehicle/camptothecin viability 0.198; viability with camptothecin (% of control) = 50.8; inactive.
Against MC1R (melanocortin 1 receptor) #2 the deposit lists log2 vehicle/camptothecin viability 0.27; viability with camptothecin (% of control) = 37.3; inactive.
Against MC1R (melanocortin 1 receptor) #3 the deposit lists log2 vehicle/camptothecin viability -0.0955; viability with camptothecin (% of control) = 41.4; inactive.
MC1R (melanocortin 1 receptor) #4 showed log2 vehicle/camptothecin viability -0.576; viability with camptothecin (% of control) = 86.4; inactive.

Part of the list above, set out differently.
{"gene symbol": "TRIM49B (tripartite motif containing 49B)", "siRNA no.": 4, "log2 vehicle/camptothecin viability": -0.49, "viability with camptothecin (% of control)": 61.2, "Call": "inactive"}
{"gene symbol": "TREML4 (triggering receptor expressed on myeloid cells like 4)", "siRNA no.": 1, "log2 vehicle/camptothecin viability": -0.501, "viability with camptothecin (% of control)": 68.1, "Call": "inactive"}
{"gene symbol": "TREML4 (triggering receptor expressed on myeloid cells like 4)", "siRNA no.": 2, "log2 vehicle/camptothecin viability": -0.705, "viability with camptothecin (% of control)": 59.8, "Call": "inactive"}
{"gene symbol": "TREML4 (triggering receptor expressed on myeloid cells like 4)", "siRNA no.": 3, "log2 vehicle/camptothecin viability": -0.127, "viability with camptothecin (% of control)": 107, "Call": "inactive"}
{"gene symbol": "TREML4 (triggering receptor expressed on myeloid cells like 4)", "siRNA no.": 4, "log2 vehicle/camptothecin viability": -0.642, "viability with camptothecin (% of control)": 78, "Call": "inactive"}

More results follow:
SPRYD4 (SPRY domain containing 4) #1 gave log2 vehicle/camptothecin viability -0.194; viability with camptothecin (% of control) = 113; inactive.
Against SPRYD4 (SPRY domain containing 4) #2 the deposit lists log2 vehicle/camptothecin viability -0.478; viability with camptothecin (% of control) = 50.2; inactive.
After knock-down of SPRYD4 (SPRY domain containing 4) #3, the screen gave log2 vehicle/camptothecin viability -0.295; viability with camptothecin (% of control) = 69.7; inactive.
SPRYD4 (SPRY domain containing 4) #4 scored log2 vehicle/camptothecin viability -0.243; viability with camptothecin (% of control) = 8.4; inactive.
With knock-down of GNRH2 (gonadotropin releasing hormone 2) #1, the record shows log2 vehicle/camptothecin viability -0.387; viability with camptothecin (% of control) = 72.1; inactive.
For GNRH2 (gonadotropin releasing hormone 2) #2, the values are log2 vehicle/camptothecin viability 0.161; viability with camptothecin (% of control) = 84.4; inactive.
Depletion of GNRH2 (gonadotropin releasing hormone 2) #3 resulted in: log2 vehicle/camptothecin viability 1.07; viability with camptothecin (% of control) = 38.7; inactive.
For GNRH2 (gonadotropin releasing hormone 2) #4 the deposit lists log2 vehicle/camptothecin viability -0.11; viability with camptothecin (% of control) = 60.4; inactive.
GABRA3 (gamma-aminobutyric acid type A receptor subunit alpha3) #1 scored log2 vehicle/camptothecin viability -0.276; viability with camptothecin (% of control) = 63.9; inactive.
Silencing of GABRA3 (gamma-aminobutyric acid type A receptor subunit alpha3) #2 resulted in: log2 vehicle/camptothecin viability 0.11; viability with camptothecin (% of control) = 27.3; inactive.
Against GABRA3 (gamma-aminobutyric acid type A receptor subunit alpha3) #3 the deposit lists log2 vehicle/camptothecin viability 0.232; viability with camptothecin (% of control) = 71; inactive.
For EYS (EGF-like photoreceptor maintenance factor) #1, the entry reads log2 vehicle/camptothecin viability -0.14; viability with camptothecin (% of control) = 88.2; inactive.
After knock-down of EYS (EGF-like photoreceptor maintenance factor) #2 the results were log2 vehicle/camptothecin viability -0.137; viability with camptothecin (% of control) = 121; inactive.
Against EYS (EGF-like photoreceptor maintenance factor) #3 the deposit lists log2 vehicle/camptothecin viability -0.242; viability with camptothecin (% of control) = 80.9; inactive.
For EYS (EGF-like photoreceptor maintenance factor) #4, the values are log2 vehicle/camptothecin viability 0.0613; viability with camptothecin (% of control) = 107; inactive.
Against HRH3 (histamine receptor H3) #1, the entry reads log2 vehicle/camptothecin viability -0.252; viability with camptothecin (% of control) = 94.9; inactive.
HRH3 (histamine receptor H3) #2 gave log2 vehicle/camptothecin viability -0.272; viability with camptothecin (% of control) = 52.7; inactive.
Silencing of HRH3 (histamine receptor H3) #3 resulted in: log2 vehicle/camptothecin viability -0.212; viability with camptothecin (% of control) = 81.5; inactive.
With knock-down of HRH3 (histamine receptor H3) #4 the results were log2 vehicle/camptothecin viability -0.0078; viability with camptothecin (% of control) = 124; inactive.
